Measurements taken from PubChem BioAssay AID504375 (National Center for Advancing Translational Sciences (NCATS), 2011).
Screen size: about 1,600 compounds; about 25 (2%) were called active. Another 7% or so got no clear call; they are omitted. The call rests on the fitted dose curve; in most records, active means well fitted inhibition curve with a large enough effect; inconclusive means small, poorly fitted or top-dose-only effect, or effect the other way; inactive means no such curve, though single readings can be large or run the other way. Some of the results follow.

The chains behind the UniProt entries cited, without tags or fusion partners.
UniProt Q01196, whole entry, looked up: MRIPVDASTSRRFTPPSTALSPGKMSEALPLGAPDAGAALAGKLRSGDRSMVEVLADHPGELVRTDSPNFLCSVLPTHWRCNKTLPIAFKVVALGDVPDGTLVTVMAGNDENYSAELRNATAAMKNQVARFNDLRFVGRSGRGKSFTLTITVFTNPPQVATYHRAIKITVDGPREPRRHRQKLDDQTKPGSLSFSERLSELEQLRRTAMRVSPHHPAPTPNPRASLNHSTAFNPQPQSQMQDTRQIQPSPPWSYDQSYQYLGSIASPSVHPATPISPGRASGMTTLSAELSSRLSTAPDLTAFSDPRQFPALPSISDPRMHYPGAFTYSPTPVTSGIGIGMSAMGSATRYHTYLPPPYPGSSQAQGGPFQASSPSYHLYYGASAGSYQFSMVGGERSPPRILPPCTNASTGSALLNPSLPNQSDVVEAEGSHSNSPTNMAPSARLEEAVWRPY
UniProt Q13951, whole entry, looked up: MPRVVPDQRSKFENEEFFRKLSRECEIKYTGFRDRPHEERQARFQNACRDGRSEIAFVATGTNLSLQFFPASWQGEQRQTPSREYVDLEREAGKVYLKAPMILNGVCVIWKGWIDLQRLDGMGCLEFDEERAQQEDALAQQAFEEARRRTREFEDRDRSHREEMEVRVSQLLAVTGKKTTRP

What follows are compounds tested against Runt-related transcription factor 1 (Homo sapiens) + Core-binding factor subunit beta (Homo sapiens) (UniProt Q01196+Q13951) (assay: qHTS Assay for Compounds Blocking the Interaction Between CBF-beta and RUNX1 for the Treatment of Acute Myeloid Leukemia: Hit Validation with Orthogonal Assay). Conditions: CBFbeta-RUNX1 binding orthogonal assay, biochemical; series mostly up to 41 µM; activity change, negative = inhibition: at the top concentration.
Outline: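 This is an orthogonal TR-FRET assay. His6-CBF-beta and biotin-RUNX1 (30 nM each) were preincubated with compound for 30 min, then Tb-anti-His antibody (0.44 ng) and streptavidin-XL665 (5 nM) were added. The signal was read after 90 min.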
On the % scale 0 is the no-effect control and ±100 the full control effect.

Activity change, negative = inhibition, inactive:
CN(C)c1cc(-c2ccc(F)cc2)oc(=O)c1Cl 15.1%
Cc1nn2c(NCCOCCO)c3c(nc2c1-c1ccccc1)CCC3 -12.1%
N#C/C(=C\c1cccnc1)c1ccc(Br)cc1 20.2%
Nc1cccnc1Oc1ccccc1F 0.0122%
O=C(NN1C(=O)CSC1=S)C(=O)NN1C(=O)CSC1=S 2.9% [at 82.4 µM]
CC(=O)Nc1ccc(OCCOc2ccc([N+](=O)[O-])cc2)cc1 14.9%
O=C(O)/C=C/C(=O)Nc1ccc(OC(F)(F)F)cc1 -0.392%
N#Cc1c(-c2cccnc2)c2c([nH]c1=O)-c1ccccc1OC2 26.4%
C=CCc1cc(Cl)ccc1OC(=O)Nc1cccc(Cl)c1 18%
Cc1onc(-c2c(F)cccc2Cl)c1C(=O)N1CCSCC1 17.9%
CCOC(=O)C1CC(C)=C(C)CC1C(=O)O (stereo not given) -4.61%
COC(=O)c1cc(NS(=O)(=O)c2ccc(F)cc2)ccc1N1CCOCC1 -13.2%
O=C(O)/C=C/C(=O)Nc1ccc(N2CCOCC2)nc1N1CCOCC1 30.7%
O=C(O)c1cnc2[nH]c3ccccc3n2c1=O 11.2%
CN1c2ccccc2C(=O)/C(=C\Nc2ccc(F)cc2)S1(=O)=O 3.72%
CCOC(=O)N1CCC(NC(=O)CCCC(=O)O)CC1 -4.06%
COc1cc(/C=N/n2c(-c3ccccc3)n[nH]c2=S)cc(OC)c1O 9.69%
CCN(CC)S(=O)(=O)c1ccc(/C=C/C(=O)Nc2ccc(N3CCOCC3)cc2)cc1 8.12%
CC1(c2ccccc2)O[C@@H]2C[C@H]3[C@@H]4CCC5=CC(=O)C=C[C@]5(C)[C@@]4(F)[C@@H](O)C[C@]3(C)[C@]2(C(=O)CO)O1 (stereo not given in full) -12.2%
NCC(=O)c1cccc2ccc[n+]([O-])c12 14.6%
N#CCCN1CCCc2cc(N=Nc3ccc(C(F)(F)F)cc3)ccc21 27.5%
CCN(CC)CCNC(=O)c1ccc2c(c1NCCO)C(=O)c1ccccc1C2=O 76.8%
CC1CC(C)(C)OC(C[N+]2(C)CCCCC2)O1 (stereo not given) -15.5%
Cc1cc(C)cc(OCc2ccc(C(=O)NN)o2)c1 -6.13%
Cc1nc(-c2ccc(S(=O)(=O)N3CCN(CCc4ccccc4)CC3)s2)cs1 -7.22%
CCOC(=O)Cc1csc(NC(=O)Nc2cccc(OC)c2)n1 -11.5%
CCOC(=O)C1CCCN(C(=O)c2csc(-c3ccc4c(c3)CCO4)n2)C1 (stereo not given) 9.04%
O=C(Nc1ccc(F)cc1F)Nc1csc2ccccc12 -13.3%
Cc1onc(-c2ccccc2)c1C(=O)Oc1ccccc1 6.45%
COc1ccccc1N1CC(C)(C)C(=O)N(C(=O)c2ccc(Cl)cc2)C1=S 12%
CCCc1c(NC(=O)Nc2ccc(F)cc2)cnn1-c1ccc(Cl)cc1 -9.04%
N#Cc1c(N)nc2c(c1-c1ccc(F)cc1)CCC2 0.367%
CC(C)(C)C(=O)Nc1ccccc1C(=O)NCc1cccnc1 7.35%
COc1cc(/C=C/c2nc3ccc([N+](=O)[O-])cc3s2)ccc1OCC(=O)O 18.5%
COc1ccc(N/C=C2\C(=O)c3c(sc(C)c3C)N(C)S2(=O)=O)cc1 2.26%
c1ccc(C2=Nn3c(Cn4nnc5ccccc54)nnc3SC2)cc1 -10.8%
O=C(O)C1CCC(=O)N1C(=O)OCc1ccccc1 (stereo not given) -17.6%
CN(c1ccccc1)c1nc(N)c([N+](=O)[O-])c(N2CCCCC2)n1 -2.53%
COC(=O)CSc1ncnc2c(C)csc12 -9.2%
Cc1nn(Cc2ccc(C(=O)NN)cc2)c(C)c1Cl -1.58%
O=C(NNc1c(Cl)cc(Cl)cc1Cl)c1n[nH]c(=O)c2ccccc12 0.159%
Cc1cccc(-c2n[nH]c(=S)n2/N=C/c2cccs2)c1 11.6%
CC(C)(C)c1csc(Sc2ncccc2[N+](=O)[O-])n1 24.4%
Cc1cccc(NC(=S)NNC(=O)c2cccc([N+](=O)[O-])c2)c1 18.9%
O=C(Nc1ccc2[nH]ccc2c1)c1ccccc1 6.12%
Cc1ccc(C)c(N2CCN(c3ccncc3N)CC2)c1 11.2%
CC1=CC(=O)C(C(C)=Nc2ccccc2Cl)C(=O)O1 (stereo not given) -0.147%
S=c1[nH]nc(Nc2cccc3ccccc23)s1 7.23%
CCCCC(=O)Nc1ccc2c(c1)nc1n2CCN(CCOC)C1 -6.69%
C=C(C)C(=O)Nc1cccnc1Oc1ccc(F)cc1F -3.93%
Cc1ccc(OCc2ccc(C(=O)NN)o2)cc1C 5.19%
CC(C)CCN1NC2(CCCC(C)C2)NC1=S (stereo not given) -8.73%
Nc1cc(Cl)nnc1Cl 12.8%
Cc1nn2c(NCCN(C)C)c3c(nc2c1-c1ccccc1)CCCC3 -6.26%
CCCc1ccc(C(=O)NC(=O)c2ccccc2O)cc1 -12.4%
COC(=O)c1ccc(COc2ccc(C)cc2[N+](=O)[O-])o1 23.5%
COc1ccccc1OCc1ccc(C(=O)NN)o1 0.502%
Cc1nn2c(NCc3ccccn3)cc(C(C)C)nc2c1-c1ccccc1 -15.8%
O=C1COc2ccc(C(=O)CSc3ccccc3C(=O)O)cc2N1 13.9%
CCOC(=O)c1cn[nH]c1NC(=S)Nc1ccc(OC)cc1 -10.9%
COc1cccc(/C=C2\SC(=S)N(C(C(=O)O)c3ccccc3)C2=O)c1OC (stereo not given) 0.232%
CC12CCC(C/C1=N\OC(=O)c1c(F)cccc1F)C2(C)C (stereo not given) -4.22%
COc1ccc(-c2nnc(SCC(=O)N/N=C/c3ccccc3C(=O)O)n2-c2ccc(Cl)cc2)cc1 -15.6%
O=C(Nc1ccc2ccccc2c1)c1cccc(F)c1 7.92%
CCNC(=O)Oc1ccc[nH]c1=O -4.86%
Cc1ccc(/C=N/N2CCN(c3ccccn3)CC2)o1 6.95%
O=C(NNC(=S)NC1CC2C=CC1C2)c1ccncc1 (stereo not given) -0.795%
O=C(CSc1nc2ccccc2n1Cc1ccccc1Cl)N/N=C/c1ccccc1C(=O)O -14.6%
CCOC(=O)[C@H](CCc1ccccc1)N[C@@H](C)C(=O)N1[C@H](C(=O)O)C[C@H]2CCCC[C@@H]21 -2.26% [at 82.4 µM]
O=C(Oc1c(-c2ccccc2)c(=O)n2c3c(cccc13)CC2)c1ccc(Cl)cc1 -14.9%
Cn1nccc1NS(=O)(=O)c1ccc(C(C)(C)C)cc1 -10.9%
CC(/C=N/n1c(-c2ccccn2)n[nH]c1=S)=C\c1ccccc1 -4.6%
Cc1nn(C)cc1/C=N/NC(=O)c1ccco1 7.02%
COc1ccc(C(=O)O)nc1C -10.2%
CCn1c(SCC(=O)N/N=C/c2ccncc2)nc2ccccc21 1.93%

Three records drawn at random from those above, as already listed:
Activity change, negative = inhibition, inactive:
CC12CCC(C/C1=N\OC(=O)c1c(F)cccc1F)C2(C)C (stereo not given) -4.22%
N#Cc1c(N)nc2c(c1-c1ccc(F)cc1)CCC2 0.367%
CC1=CC(=O)C(C(C)=Nc2ccccc2Cl)C(=O)O1 (stereo not given) -0.147%
